The target in the assay is T1, lexA-Mek1 (yeast) (UniProt P24719).
T1 sequence: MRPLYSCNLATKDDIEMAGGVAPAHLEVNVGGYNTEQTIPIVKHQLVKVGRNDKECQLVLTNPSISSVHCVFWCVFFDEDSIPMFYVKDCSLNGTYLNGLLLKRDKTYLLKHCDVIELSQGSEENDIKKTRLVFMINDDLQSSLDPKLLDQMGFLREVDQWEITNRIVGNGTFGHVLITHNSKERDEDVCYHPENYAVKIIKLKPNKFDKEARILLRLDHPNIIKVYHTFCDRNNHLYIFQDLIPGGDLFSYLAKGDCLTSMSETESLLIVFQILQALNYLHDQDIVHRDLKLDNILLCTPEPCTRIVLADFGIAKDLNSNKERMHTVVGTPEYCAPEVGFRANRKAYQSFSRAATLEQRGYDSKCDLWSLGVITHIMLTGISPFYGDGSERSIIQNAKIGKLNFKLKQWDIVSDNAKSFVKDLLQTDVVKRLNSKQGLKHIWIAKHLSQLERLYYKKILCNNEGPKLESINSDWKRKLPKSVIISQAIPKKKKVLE
The assay can be described thus: two-hybrid; directed test: lexA and GAD plasmids co-transformed into L40; ten-fold dilutions spotted on SD-Leu-Trp-His (HIS3) and beta-galactosidase filter assay (lacZ), 30°C.

Protein sequences, listed by entry. Tags and fused reporters are not part of them. Lines headed by an entry give the natural chain unless they say otherwise; changes in a name come on top.
UniProt P38830: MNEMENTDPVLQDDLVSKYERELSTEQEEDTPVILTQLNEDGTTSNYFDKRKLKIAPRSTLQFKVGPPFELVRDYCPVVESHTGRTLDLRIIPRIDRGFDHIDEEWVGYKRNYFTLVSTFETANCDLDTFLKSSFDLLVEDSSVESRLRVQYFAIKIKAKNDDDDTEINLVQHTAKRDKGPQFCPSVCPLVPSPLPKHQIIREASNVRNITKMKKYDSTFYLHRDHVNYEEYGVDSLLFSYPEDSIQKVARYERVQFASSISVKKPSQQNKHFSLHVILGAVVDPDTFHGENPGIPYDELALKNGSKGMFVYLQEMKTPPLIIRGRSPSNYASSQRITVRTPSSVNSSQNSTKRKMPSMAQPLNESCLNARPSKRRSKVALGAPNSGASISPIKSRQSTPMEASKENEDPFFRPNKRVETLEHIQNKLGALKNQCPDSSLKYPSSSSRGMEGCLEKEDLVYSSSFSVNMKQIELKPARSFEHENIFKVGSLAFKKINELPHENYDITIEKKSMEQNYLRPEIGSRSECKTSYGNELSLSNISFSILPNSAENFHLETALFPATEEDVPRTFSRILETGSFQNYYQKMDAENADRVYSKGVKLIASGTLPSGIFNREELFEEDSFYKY

Results are given in words; binding and its absence hold for the method and conditions named.

Take “GAD-NDT80-ΔRPSKR (from UniProt P38830) (domain or fragment)”: the binding entry is reported as “no binding”.

For “GAD-NDT80-Δbc (from UniProt P38830) (domain or fragment)”, the binding result is listed as “no binding”.

The record behind these values is article PMC6289461, “Mek1 coordinates meiotic progression with DNA break repair by directly phosphorylating and inhibiting the yeast pachytene exit regulator Ndt80”.
